No constants are given. Whether binding was seen depends on the method and setting. Some results given as binding are weak or reduced against the parent protein; the word gives no strength. Tags and fused reporters may be left off the sequences shown.
What was measured:
[1] = target: MEF2C in nuclei of BMMSCs and Cardiac lineage committed cells; experiment: immunofluorescence on fixed, permeabilised cells, staining conditions of Example 2
[2] = target: Flag-tagged full length MEF2C protein expressed in transfected HeLa cells (Origene MEF2C (NM-002397) Human cDNA ORF Clone) (human) (UniProt Q06413); experiment: immunofluorescence on transfected HeLa cells
[3] = target: MEF2C (Myocyte-specific enhancer factor 2C) expressed from a MEF2C coding vector in transfected cells (human) (UniProt Q06413); experiment: Western blot of extracts of transfected cells (figure legend)
[4] = target: Flag-tagged full length MEF2C protein expressed in transfected HeLa cells (Origene MEF2C (NM-002397) Human cDNA ORF Clone) (human) (UniProt Q06413); experiment: immunofluorescence on HeLa cells transfected with Flag-tagged MEF2C, 3 mg/ml stock diluted 1:3000
[5] = target: MEF2C in nuclei of BMMSCs and Cardiac lineage committed cells; experiment: immunofluorescence, histogram of mean nuclear fluorescence intensity in intervals of 7.5 units
[6] = target: MEF2C (Myocyte-specific enhancer factor 2C) expressed from a MEF2C coding vector in transfected cells (human) (UniProt Q06413); experiment: Western blot of extracts of transfected cells, antibody diluted 1:500
[7] = target: MEF2C in nuclei of BMMSCs and Cardiac lineage committed cells; experiment: immunofluorescence, mean nuclear fluorescence intensity of single nuclei

By UniProt entry, the sequences of proteins in these tests, tags left out. Where a name states a change or a piece, a line headed by the entry shows the natural chain unless it says otherwise.
UniProt Q06413: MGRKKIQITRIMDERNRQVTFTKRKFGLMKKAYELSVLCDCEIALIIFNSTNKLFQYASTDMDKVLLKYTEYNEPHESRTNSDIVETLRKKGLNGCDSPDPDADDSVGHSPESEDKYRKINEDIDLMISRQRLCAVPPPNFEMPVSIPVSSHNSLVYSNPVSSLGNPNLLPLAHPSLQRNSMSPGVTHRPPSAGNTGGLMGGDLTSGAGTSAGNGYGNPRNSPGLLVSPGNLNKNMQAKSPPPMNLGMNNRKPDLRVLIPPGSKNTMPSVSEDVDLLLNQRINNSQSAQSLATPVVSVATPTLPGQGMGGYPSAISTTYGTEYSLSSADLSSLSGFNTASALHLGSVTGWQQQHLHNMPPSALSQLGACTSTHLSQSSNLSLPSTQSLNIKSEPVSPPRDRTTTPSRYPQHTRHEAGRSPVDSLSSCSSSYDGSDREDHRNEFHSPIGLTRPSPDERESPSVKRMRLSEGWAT

binding [1]: binds | binding [2]: binds | binding [3]: binds | binding [4]: binds | binding [5]: binds | binding [6]: binds | binding [7]: binds
B1: anti-MEF2C monoclonal antibody produced by the hybridoma cell line deposited with BCCM/LMBP under Accession No. LMBP 9949CB (antibody, V domains shown)
VH: EVQLQQSGPELVKPGASVKISCKASAYSFTGYFMNWVKQSHGKSLEWIGRINPYNGNTFYNQNFKGKATLTVDRSSSTAHMQILSLTSEDSTVYYCGREGATGAMDYWGQGTSVTVLP
VL: DVVMTQTPLSLPVSLGDQASISCRSSQSLVHSNGDTYLHWYLQMPGQSPRLLIYKVSNRFSGVPDRFSGSGSGTDFTLKISRVEAEDLGVYFCSQSTHVPPTFGGGTKLEIK
notes: IgG from a mouse hybridoma (detected with anti-mouse IgG); also called anti-MEF2C mAb; α MEF2C

From patent publication US20150337031A1 (CELYAD S A, published 2015)
